Laboratory results taken from patent US20190010245A1.
Results are given in words; binding and its absence hold for the method and conditions named. Some binding calls cover weakened binding; strength is not graded here.

Chains of the proteins cited; added tags and fusions are not shown. Lines headed by an entry give the natural chain unless they say otherwise; changes in a name come on top.
UniProt Q01705: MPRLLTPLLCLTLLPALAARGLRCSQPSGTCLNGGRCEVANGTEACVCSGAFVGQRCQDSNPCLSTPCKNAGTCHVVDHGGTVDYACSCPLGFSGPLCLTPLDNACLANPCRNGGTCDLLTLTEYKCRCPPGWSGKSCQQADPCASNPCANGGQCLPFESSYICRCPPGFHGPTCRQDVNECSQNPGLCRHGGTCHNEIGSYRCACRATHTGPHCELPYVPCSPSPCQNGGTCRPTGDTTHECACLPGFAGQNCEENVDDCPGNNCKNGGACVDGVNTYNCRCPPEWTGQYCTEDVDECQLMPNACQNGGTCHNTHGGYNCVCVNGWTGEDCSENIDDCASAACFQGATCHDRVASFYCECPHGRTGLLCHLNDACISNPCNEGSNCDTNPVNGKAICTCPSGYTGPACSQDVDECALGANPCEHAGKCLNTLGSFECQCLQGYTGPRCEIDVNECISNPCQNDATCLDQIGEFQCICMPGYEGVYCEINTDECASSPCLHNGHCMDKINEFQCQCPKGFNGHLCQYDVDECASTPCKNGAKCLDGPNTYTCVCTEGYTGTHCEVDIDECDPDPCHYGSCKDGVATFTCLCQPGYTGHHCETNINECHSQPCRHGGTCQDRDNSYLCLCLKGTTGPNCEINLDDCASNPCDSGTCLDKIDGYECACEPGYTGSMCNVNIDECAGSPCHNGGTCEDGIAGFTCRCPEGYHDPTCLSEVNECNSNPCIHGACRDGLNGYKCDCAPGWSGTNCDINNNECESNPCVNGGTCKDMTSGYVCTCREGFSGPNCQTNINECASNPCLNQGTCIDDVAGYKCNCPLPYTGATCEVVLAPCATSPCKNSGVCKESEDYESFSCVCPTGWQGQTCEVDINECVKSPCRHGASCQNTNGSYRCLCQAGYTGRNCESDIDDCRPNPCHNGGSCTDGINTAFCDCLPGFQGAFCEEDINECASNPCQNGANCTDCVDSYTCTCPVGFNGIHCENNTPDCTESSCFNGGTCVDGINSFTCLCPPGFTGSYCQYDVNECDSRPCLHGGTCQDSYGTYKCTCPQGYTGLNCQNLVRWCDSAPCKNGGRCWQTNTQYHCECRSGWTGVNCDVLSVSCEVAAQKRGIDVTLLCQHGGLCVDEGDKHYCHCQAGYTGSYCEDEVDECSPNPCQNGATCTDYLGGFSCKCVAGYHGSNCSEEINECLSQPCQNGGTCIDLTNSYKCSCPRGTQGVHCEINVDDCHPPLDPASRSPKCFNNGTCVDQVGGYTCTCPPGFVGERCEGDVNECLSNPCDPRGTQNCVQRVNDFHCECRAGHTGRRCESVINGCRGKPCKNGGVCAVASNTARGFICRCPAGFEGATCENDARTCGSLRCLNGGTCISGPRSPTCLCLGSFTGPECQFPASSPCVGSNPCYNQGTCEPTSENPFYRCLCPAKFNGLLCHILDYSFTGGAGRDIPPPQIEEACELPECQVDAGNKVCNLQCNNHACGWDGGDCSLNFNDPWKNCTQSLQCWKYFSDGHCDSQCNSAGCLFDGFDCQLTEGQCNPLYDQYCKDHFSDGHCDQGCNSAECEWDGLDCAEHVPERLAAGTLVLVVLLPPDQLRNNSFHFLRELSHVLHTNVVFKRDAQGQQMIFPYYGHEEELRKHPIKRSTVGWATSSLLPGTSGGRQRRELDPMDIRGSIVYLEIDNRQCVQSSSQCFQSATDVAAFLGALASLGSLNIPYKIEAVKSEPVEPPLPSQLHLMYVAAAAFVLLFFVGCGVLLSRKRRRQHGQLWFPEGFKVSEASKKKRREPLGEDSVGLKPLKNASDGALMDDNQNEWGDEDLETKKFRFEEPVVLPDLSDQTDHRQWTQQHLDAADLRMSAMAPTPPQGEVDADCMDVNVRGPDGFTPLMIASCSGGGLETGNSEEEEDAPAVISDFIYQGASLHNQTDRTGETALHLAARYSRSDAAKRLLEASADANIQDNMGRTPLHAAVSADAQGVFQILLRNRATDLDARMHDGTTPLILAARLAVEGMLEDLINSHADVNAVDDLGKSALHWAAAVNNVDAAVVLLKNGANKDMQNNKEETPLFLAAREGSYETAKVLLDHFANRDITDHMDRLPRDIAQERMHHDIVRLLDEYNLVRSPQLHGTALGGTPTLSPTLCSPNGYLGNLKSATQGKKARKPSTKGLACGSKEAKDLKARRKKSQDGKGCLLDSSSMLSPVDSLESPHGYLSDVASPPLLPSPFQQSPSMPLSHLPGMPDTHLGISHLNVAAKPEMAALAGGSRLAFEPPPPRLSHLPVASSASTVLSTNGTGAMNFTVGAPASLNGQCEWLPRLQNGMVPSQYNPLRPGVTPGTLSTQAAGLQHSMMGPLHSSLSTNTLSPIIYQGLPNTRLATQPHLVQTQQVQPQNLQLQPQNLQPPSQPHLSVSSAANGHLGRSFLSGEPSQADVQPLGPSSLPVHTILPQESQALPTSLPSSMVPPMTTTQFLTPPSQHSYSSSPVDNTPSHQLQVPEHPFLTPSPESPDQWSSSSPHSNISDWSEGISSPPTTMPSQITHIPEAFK

Molecular target: NRR of the SynNotch receptors of Example 4 (mouse) (UniProt Q01705)
Test: inferred from the loss of anti-NRR antibody staining on HeLa cells expressing the sNRR receptor (FIG. 32A); intramolecular

binding: binds
B1: Ab2 scFv integrated in the receptor as LNR4 / sNRR domain (scFv)
scFv: EVQLVESGGGLVQPGGSLRLSCAASGFTFSSYWIHWVRQAPGKGLEWVARINPPNRSNQYADSVKGRFTISADTSKNTAYLQMNSLRAEDTAVYYCARGSGFRWVMDYWGQGTLVTVSSGGSSRSSSSGGGGSGGGGDIQMTQSPSSLSASVGDRVTITCRASQDVSTAVAWYQQKPGKAPKLLIYSASFLYSGVPSRFSGSGSGTDFTLTISSLQPEDFATYYCQQFYTTPSTFGQGTKVEIK
